Results from US9718825B2, “N-(4-(azaindazol-6-yl)-phenyl)-sulfonamides and their use as pharmaceuticals” (priority 2013, dated 2017).
The structures given here were assigned with low confidence; some may be wrong.

Chains of the proteins cited; added tags and fusions are not shown.
UniProt O00141, whole entry, looked up: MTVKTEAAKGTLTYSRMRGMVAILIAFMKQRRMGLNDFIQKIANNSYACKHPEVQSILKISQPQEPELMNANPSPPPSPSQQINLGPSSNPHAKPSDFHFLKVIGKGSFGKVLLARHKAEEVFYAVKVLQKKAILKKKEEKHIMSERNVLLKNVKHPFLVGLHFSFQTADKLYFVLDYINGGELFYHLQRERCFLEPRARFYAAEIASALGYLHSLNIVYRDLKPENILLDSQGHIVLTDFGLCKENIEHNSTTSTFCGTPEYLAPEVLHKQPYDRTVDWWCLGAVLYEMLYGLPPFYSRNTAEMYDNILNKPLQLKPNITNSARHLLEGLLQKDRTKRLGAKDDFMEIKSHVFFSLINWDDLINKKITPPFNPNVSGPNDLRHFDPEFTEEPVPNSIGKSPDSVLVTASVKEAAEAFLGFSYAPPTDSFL

Target: SGK-1 dependent phosphorylation of GSK3beta in U2OS cells (UniProt O00141)
Experiment: SGK-1 dependent phosphorylation of GSK3beta in U2OS cells overexpressing recombinant SGK-1 and GSK3beta
Type: cell-based, human
Details: read-out: IC50 values for inhibition of SGK-1 dependent phosphorylation of GSK3beta in U2OS cells, 6 h incubation, ratio of phosphorylated GSK3beta to total GSK3beta

IC50: 1400 nM
Structure (SMILES): COc1nc(-c2ccc(NS(=O)(=O)c3cc(C)ccc3F)cc2)nc2[nH]ncc12
